Measurements: the supplement of paper PMC9233669
This sample is rich in variants without activity.

Legend:
biotinyl-Trp-oxazolone = assay: self-aminoacylation, catalytic enhancement (BWO) (fold over background); higher = more active; k-Seq, kA / k0A0; sequences stand for … in GGGAAUGGAUCCACAUCUACGAAUUC…UUCACUGCAGACUUGACGAAGCUG
Method in brief: (§1)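 Mutagenized RNA pools (0.43 μM; 21-nt variable region) were treated with 2–1250 μM of each biotinyl-aminoacyl-oxazolone. Conditions were 50 μL HEPES/NaCl/KCl/MgCl2/CaCl2 buffer, 5% acetonitrile, pH 6.9–7.0, room temperature, 90 minutes. Catalytic enhancement, the median kA relative to the uncatalyzed rate, was derived from streptavidin capture, qPCR and Illumina sequencing.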

biotinyl-Leu-oxazolone = assay: self-aminoacylation, catalytic enhancement (BLO) (fold over background); higher = more active; k-Seq, kA / k0A0; sequences stand for … in GGGAAUGGAUCCACAUCUACGAAUUC…UUCACUGCAGACUUGACGAAGCUG
Method in brief: as §1

biotinyl-Val-oxazolone = assay: self-aminoacylation, catalytic enhancement (BVO) (fold over background); higher = more active; k-Seq, kA / k0A0; sequences stand for … in GGGAAUGGAUCCACAUCUACGAAUUC…UUCACUGCAGACUUGACGAAGCUG
Method in brief: as §1

biotinyl-Ile-oxazolone = assay: self-aminoacylation, catalytic enhancement (BIO) (fold over background); higher = more active; k-Seq, kA / k0A0; sequences stand for … in GGGAAUGGAUCCACAUCUACGAAUUC…UUCACUGCAGACUUGACGAAGCUG
Method in brief: as §1

biotinyl-Met-oxazolone = assay: self-aminoacylation, catalytic enhancement (BMO) (fold over background); higher = more active; k-Seq, kA / k0A0; sequences stand for … in GGGAAUGGAUCCACAUCUACGAAUUC…UUCACUGCAGACUUGACGAAGCUG
Method in brief: as §1

biotinyl-Phe-oxazolone = assay: self-aminoacylation, catalytic enhancement (BFO) (fold over background); higher = more active; k-Seq, kA / k0A0; sequences stand for … in GGGAAUGGAUCCACAUCUACGAAUUC…UUCACUGCAGACUUGACGAAGCUG
Method in brief: as §1

Row | Sequence | self-aminoacylation (biotinyl-Trp-oxazolone) | self-aminoacylation (biotinyl-Leu-oxazolone) | self-aminoacylation (biotinyl-Val-oxazolone) | self-aminoacylation (biotinyl-Ile-oxazolone) | self-aminoacylation (biotinyl-Met-oxazolone) | self-aminoacylation (biotinyl-Phe-oxazolone)
1 | CUACUUCUAGCAAUCGGUCUG [Fam1A.1 aminoacylation ribozyme variant] | 0.542 | 0.759 | 0.677 | 0.759 | 0.753 | 0.603
2 | UAGUUUGCUAAUAGUCGCACG [Fam3.1 aminoacylation ribozyme variant] | 1.57 | 1.42 | 1.04 | 1.13 | 0.875 | 1.57
3 | CCACACUUAAAGCAAUUGGUC [Fam1B.1 aminoacylation ribozyme variant] | 0.523 | 0.623 | 0.765 | 0.855 | 0.723 | 0.759
4 | CUACUUCCAACAAUCGGUCUU [Fam1A.1 aminoacylation ribozyme variant] | 0.435 | 0.843 | 0.813 | 1.01 | 0.764 | 0.787
5 | AUUACCCUGCUCAUCAAGUGA [Fam2.1 aminoacylation ribozyme variant] | 0.924 | 0.571 | 0.772 | 0.78 | 0.613 | 0.6
6 | CCACACUUCAAGCAAGCUGUC [Fam1B.1 aminoacylation ribozyme variant] | 0.346 | 0.404 | 0.565 | 0.504 | 0.451 | 0.716
7 | AUUCACCUAGGUCAUCUGAUG [Fam2.2 aminoacylation ribozyme variant] | 0.419 | 0.751 | 0.669 | 0.695 | 0.695 | 0.489
8 | AAGUUUGCUAAUUGACGCAAG [Fam3.1 aminoacylation ribozyme variant] | 0.772 | 0.716 | 0.833 | 0.774 | 0.937 | 1.18
9 | CCACACUUCAAGCAAUUGGCC [Fam1B.1 aminoacylation ribozyme variant] | 3.51 | 3.18 | 4.13 | 2.77 | 2.58 | 2.34
10 | CUACUUCCAAAAAUCGGUCUG [Fam1A.1 aminoacylation ribozyme variant] | 0.959 | 0.832 | 0.85 | 0.907 | 1.03 | 0.806
11 | CCACAAUUCAAGAAAUCGGUC [Fam1B.1 aminoacylation ribozyme variant] | 1.41 | 0.866 | 0.906 | 0.949 | 0.78 | 1.38
12 | AAGUUUGAUAAUAGUCGCAGG [Fam3.1 aminoacylation ribozyme variant] | 0.976 | 1.27 | 1.11 | 1.21 | 1.53 | 1.61
13 | AUUACCUUGGUCAUCGACUGA [Fam2.1 aminoacylation ribozyme variant] | 0.355 | 0.747 | 0.787 | 0.836 | 0.684 | 0.841
14 | CUACACGUCAAGCAAUCGGUC [Fam1B.1 aminoacylation ribozyme variant] | 0.808 | 1.14 | 0.919 | 0.902 | 0.979 | 0.617
15 | CCACACUUCAAGGAAUCGAUC [Fam1B.1 aminoacylation ribozyme variant] | 0.395 | 0.416 | 0.489 | 0.484 | 0.419 | 0.608
16 | CUUCUUCAAACGAUCGGUCUG [Fam1A.1 aminoacylation ribozyme variant] | 0.947 | 0.915 | 0.784 | 0.71 | 0.858 | 1.02
17 | CCACACUUCAAGCAAUAGGUC [Fam1B.1 aminoacylation ribozyme variant] | 0.559 | 0.539 | 0.682 | 0.643 | 0.543 | 1.22
18 | AAGUUUGCUAAUAGUCGCUUG [Fam3.1 aminoacylation ribozyme variant] | 0.995 | 0.738 | 0.745 | 0.844 | 0.763 | 0.791
19 | AAGUUUGCUAAUAUUCACAAG [Fam3.1 aminoacylation ribozyme variant] | 1.56 | 1.38 | 1.45 | 1.39 | 1.75 | 1.21
20 | AUUACCCUGGUCAUCGAUUUA [Fam2.1 aminoacylation ribozyme variant] | 0.727 | 0.965 | 0.917 | 0.863 | 1.07 | 0.979
21 | AAGUUAGCUACUAGUCGCAAG [Fam3.1 aminoacylation ribozyme variant] | 1.48 | 1.36 | 1.34 | 1.96 | 1.66 | 1.93

Row | Sequence | self-aminoacylation (biotinyl-Trp-oxazolone) | self-aminoacylation (biotinyl-Leu-oxazolone) | self-aminoacylation (biotinyl-Val-oxazolone) | self-aminoacylation (biotinyl-Ile-oxazolone) | self-aminoacylation (biotinyl-Met-oxazolone) | self-aminoacylation (biotinyl-Phe-oxazolone)
22 | AAGUUUGCUACUAGUCGCAAU [Fam3.1 aminoacylation ribozyme variant] | 0.974 | 1.05 | 1.2 | 1.23 | 0.874 | 1.02
23 | CUACUACAAACAAUCGGUCGG [Fam1A.1 aminoacylation ribozyme variant] | 0.512 | 0.843 | 0.759 | 0.776 | 0.99 | 0.903
24 | AUUACCCUGGUCCUCGGGUGA [Fam2.1 aminoacylation ribozyme variant] | 9.25 | 10.4 | 6.25 | 5.18 | 9.89 | 69.6
25 | AAGGUUGCUAAUAGUUGCAAG [Fam3.1 aminoacylation ribozyme variant] | 1.13 | 1.41 | 1.3 | 1.2 | 1.48 | 1.19
26 | CCACACUCCAAGCAAUCGGAC [Fam1B.1 aminoacylation ribozyme variant] | 0.574 | 1.37 | 0.937 | 1.09 | 0.74 | 0.729
27 | CUUACCCUGGUCAUCGAGAGA [Fam2.1 aminoacylation ribozyme variant] | 0.64 | 0.977 | 1.07 | 0.88 | 0.854 | 0.65
28 | CUUCACCUAGGUCAUCGGGUG [Fam2.2 aminoacylation ribozyme variant] | 6.65 | 9 | 5.18 | 4.63 | 7.51 | 34.6
29 | UAGUUUGCUAAUAGUCGGAAG [Fam3.1 aminoacylation ribozyme variant] | 2.37 | 0.963 | 1.22 | 1.01 | 1.13 | 6.04
30 | GAGUUUGCUAAUAGGCGCAAG [Fam3.1 aminoacylation ribozyme variant] | 1.35 | 1.02 | 0.836 | 0.982 | 0.961 | 1.4
31 | CUACUUCAAACUAUCGGUCCG [Fam1A.1 aminoacylation ribozyme variant] | 0.414 | 0.718 | 0.888 | 0.765 | 0.619 | 0.581
32 | CCAUACUUCAAGCAGUCGGUC [Fam1B.1 aminoacylation ribozyme variant] | 0.754 | 0.907 | 0.978 | 1.04 | 0.911 | 0.922
33 | CCACACUGCAAGCAGUCGGUC [Fam1B.1 aminoacylation ribozyme variant] | 1.25 | 1.58 | 1.75 | 1.36 | 1.04 | 0.623
34 | CCAUAAUUCAAGCAAUCGGUC [Fam1B.1 aminoacylation ribozyme variant] | 0.803 | 0.802 | 0.83 | 0.934 | 0.799 | 1.25
35 | AAGAUUGCUAAUAAUCGCAAG [Fam3.1 aminoacylation ribozyme variant] | 1.29 | 1.23 | 1.21 | 1.4 | 1.14 | 1.68
36 | AAGUUUGCUAAUGGUCGCAAU [Fam3.1 aminoacylation ribozyme variant] | 1.45 | 1.17 | 1.18 | 1.14 | 1 | 3.15
37 | CCACACUUCAAACAAUCGGUA [Fam1B.1 aminoacylation ribozyme variant] | 1.47 | 0.734 | 1.02 | 0.873 | 0.947 | 1.62
38 | AUUACCCUGGACAUCGAGUGU [Fam2.1 aminoacylation ribozyme variant] | 4.38 | 3.35 | 2.66 | 1.51 | 3.35 | 5.95
39 | CUACUUCAAACAGUCGGACUG [Fam1A.1 aminoacylation ribozyme variant] | 0.682 | 0.564 | 0.826 | 0.853 | 0.697 | 0.77
40 | AAGUUUACUAAUAGUCGGAAG [Fam3.1 aminoacylation ribozyme variant] | 1.05 | 0.654 | 1.01 | 1.26 | 1.05 | 1.59
41 | AUCCACAUAGGUCAUCGGGUG [Fam2.2 aminoacylation ribozyme variant] | 8.91 | 12.1 | 6.77 | 5.82 | 10.1 | 78.8
42 | AUUACCCUGGUCAUCGAGUCA [Fam2.1 aminoacylation ribozyme variant] | 0.857 | 1.08 | 1.01 | 0.903 | 1.07 | 1.61
